This is an account of results in paper PMC6113226.

Chains of the proteins cited; added tags and fusions are not shown.
UniProt P62330: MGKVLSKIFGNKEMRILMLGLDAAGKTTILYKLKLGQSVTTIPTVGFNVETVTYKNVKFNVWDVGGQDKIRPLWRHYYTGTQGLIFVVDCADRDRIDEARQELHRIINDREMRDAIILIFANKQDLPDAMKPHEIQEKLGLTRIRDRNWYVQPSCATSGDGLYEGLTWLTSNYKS

Assay in all cases: co-IP; lysates of Xenopus gastrula (stage 10) embryos injected with RNAs of tagged proteins; ice-cold TNSG buffer (20 mM Tris-HCl pH 7.5, 137 mM NaCl, 1% NP-40); IP 8 h, 25 embryo equivalents, anti-Flag, HA or V5-agarose; western blot; in some panels Dsh2-MO, Dsh2-MOR RNA, caFGFR or EphB-ΔC RNAs co-injected
(In general: Immunoblotting shows a protein as a band on a membrane.)

For test [1], the target named is T1, TBC1d24-V5 (wild-type Xenopus TBC1d24, V5-tagged) (Xenopus) (UniProt A1A5K6).
T1 sequence: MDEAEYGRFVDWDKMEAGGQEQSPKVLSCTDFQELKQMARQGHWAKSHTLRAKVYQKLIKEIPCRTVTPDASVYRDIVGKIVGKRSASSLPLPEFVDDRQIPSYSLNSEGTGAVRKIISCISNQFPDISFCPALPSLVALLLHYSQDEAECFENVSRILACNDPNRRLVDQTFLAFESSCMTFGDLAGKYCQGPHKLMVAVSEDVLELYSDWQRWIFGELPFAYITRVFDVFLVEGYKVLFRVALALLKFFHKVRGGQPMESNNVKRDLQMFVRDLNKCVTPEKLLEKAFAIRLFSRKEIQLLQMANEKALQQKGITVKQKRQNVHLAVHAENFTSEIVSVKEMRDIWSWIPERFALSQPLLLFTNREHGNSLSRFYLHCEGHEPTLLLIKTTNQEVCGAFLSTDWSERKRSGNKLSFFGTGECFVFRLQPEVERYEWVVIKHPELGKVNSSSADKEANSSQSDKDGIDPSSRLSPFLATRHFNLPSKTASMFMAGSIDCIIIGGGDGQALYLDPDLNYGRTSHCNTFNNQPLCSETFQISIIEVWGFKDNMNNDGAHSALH

The target of another test is Arf6 (UniProt P62330).
Test [2] concerns the target T2, Dishevelled 2 (Dsh2), HA-tagged (Xenopus) (UniProt P51142).
T2 sequence: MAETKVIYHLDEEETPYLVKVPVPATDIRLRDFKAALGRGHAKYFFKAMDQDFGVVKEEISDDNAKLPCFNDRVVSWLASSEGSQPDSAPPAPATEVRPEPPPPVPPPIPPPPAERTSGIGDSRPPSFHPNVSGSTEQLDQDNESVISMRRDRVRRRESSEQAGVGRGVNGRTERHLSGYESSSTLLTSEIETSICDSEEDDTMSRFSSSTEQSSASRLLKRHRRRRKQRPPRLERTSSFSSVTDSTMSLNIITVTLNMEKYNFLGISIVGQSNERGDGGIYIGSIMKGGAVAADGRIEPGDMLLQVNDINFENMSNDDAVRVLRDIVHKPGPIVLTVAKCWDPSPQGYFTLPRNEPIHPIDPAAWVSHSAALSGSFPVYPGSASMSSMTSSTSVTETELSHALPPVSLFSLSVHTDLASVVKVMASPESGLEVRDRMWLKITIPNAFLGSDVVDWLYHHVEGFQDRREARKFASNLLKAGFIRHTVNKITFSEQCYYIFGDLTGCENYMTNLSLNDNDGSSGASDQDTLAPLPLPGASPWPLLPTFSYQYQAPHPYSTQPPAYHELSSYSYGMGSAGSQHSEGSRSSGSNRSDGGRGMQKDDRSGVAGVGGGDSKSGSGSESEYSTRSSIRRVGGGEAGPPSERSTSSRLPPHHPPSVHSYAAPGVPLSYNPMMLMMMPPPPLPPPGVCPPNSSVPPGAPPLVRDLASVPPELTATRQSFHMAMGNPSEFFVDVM

Results are given in words; binding and its absence hold for the method and conditions named. Binding seen in cells or lysates may run through a third protein. Some results given as binding are weak or reduced against the parent protein; the word gives no strength. Sequences can lack the tags named with a protein.

B1: Dishevelled 2 (Dsh2), HA-tagged (protein, UniProt P51142 1-736)
chain: MAETKVIYHLDEEETPYLVKVPVPATDIRLRDFKAALGRGHAKYFFKAMDQDFGVVKEEISDDNAKLPCFNDRVVSWLASSEGSQPDSAPPAPATEVRPEPPPPVPPPIPPPPAERTSGIGDSRPPSFHPNVSGSTEQLDQDNESVISMRRDRVRRRESSEQAGVGRGVNGRTERHLSGYESSSTLLTSEIETSICDSEEDDTMSRFSSSTEQSSASRLLKRHRRRRKQRPPRLERTSSFSSVTDSTMSLNIITVTLNMEKYNFLGISIVGQSNERGDGGIYIGSIMKGGAVAADGRIEPGDMLLQVNDINFENMSNDDAVRVLRDIVHKPGPIVLTVAKCWDPSPQGYFTLPRNEPIHPIDPAAWVSHSAALSGSFPVYPGSASMSSMTSSTSVTETELSHALPPVSLFSLSVHTDLASVVKVMASPESGLEVRDRMWLKITIPNAFLGSDVVDWLYHHVEGFQDRREARKFASNLLKAGFIRHTVNKITFSEQCYYIFGDLTGCENYMTNLSLNDNDGSSGASDQDTLAPLPLPGASPWPLLPTFSYQYQAPHPYSTQPPAYHELSSYSYGMGSAGSQHSEGSRSSGSNRSDGGRGMQKDDRSGVAGVGGGDSKSGSGSESEYSTRSSIRRVGGGEAGPPSERSTSSRLPPHHPPSVHSYAAPGVPLSYNPMMLMMMPPPPLPPPGVCPPNSSVPPGAPPLVRDLASVPPELTATRQSFHMAMGNPSEFFVDVM
In the case of B1, in test [1], the binding entry was “binds”.

B2: Dsh2 construct representing only the DEP domain, HA-tagged (domain or fragment, UniProt P51142 428-502)
chain: PESGLEVRDRMWLKITIPNAFLGSDVVDWLYHHVEGFQDRREARKFASNLLKAGFIRHTVNKITFSEQCYYIFGD
In the case of B2, the binding entry in test [1] is “binds”.

B3: TBC1d24-V5 (wild-type Xenopus TBC1d24, V5-tagged) (protein, UniProt A1A5K6 1-562)
chain: MDEAEYGRFVDWDKMEAGGQEQSPKVLSCTDFQELKQMARQGHWAKSHTLRAKVYQKLIKEIPCRTVTPDASVYRDIVGKIVGKRSASSLPLPEFVDDRQIPSYSLNSEGTGAVRKIISCISNQFPDISFCPALPSLVALLLHYSQDEAECFENVSRILACNDPNRRLVDQTFLAFESSCMTFGDLAGKYCQGPHKLMVAVSEDVLELYSDWQRWIFGELPFAYITRVFDVFLVEGYKVLFRVALALLKFFHKVRGGQPMESNNVKRDLQMFVRDLNKCVTPEKLLEKAFAIRLFSRKEIQLLQMANEKALQQKGITVKQKRQNVHLAVHAENFTSEIVSVKEMRDIWSWIPERFALSQPLLLFTNREHGNSLSRFYLHCEGHEPTLLLIKTTNQEVCGAFLSTDWSERKRSGNKLSFFGTGECFVFRLQPEVERYEWVVIKHPELGKVNSSSADKEANSSQSDKDGIDPSSRLSPFLATRHFNLPSKTASMFMAGSIDCIIIGGGDGQALYLDPDLNYGRTSHCNTFNNQPLCSETFQISIIEVWGFKDNMNNDGAHSALH
On to B3, for which the binding entry is given as “binds weakly” with Arf6 and “binds” in test [2].
